Like-named read-outs stand apart in the source and are kept apart here. Results are given in words; binding and its absence hold for the method and conditions named. For some of these results: In cells and extracts the contact can be indirect. Some entries that bind do so weakly or less than the wild type. For some of these results: Where a sequence is shown, tags or fusion partners need not be part of it. Each block holds one binder with its values, some of them ahead of it.
How the values were obtained:
[1] = target: T1, radiolabeled H6PEX7 (human) (UniProt O00628); assay: native gel or EMSA
T1 sequence (chain, [^35S]methionine label): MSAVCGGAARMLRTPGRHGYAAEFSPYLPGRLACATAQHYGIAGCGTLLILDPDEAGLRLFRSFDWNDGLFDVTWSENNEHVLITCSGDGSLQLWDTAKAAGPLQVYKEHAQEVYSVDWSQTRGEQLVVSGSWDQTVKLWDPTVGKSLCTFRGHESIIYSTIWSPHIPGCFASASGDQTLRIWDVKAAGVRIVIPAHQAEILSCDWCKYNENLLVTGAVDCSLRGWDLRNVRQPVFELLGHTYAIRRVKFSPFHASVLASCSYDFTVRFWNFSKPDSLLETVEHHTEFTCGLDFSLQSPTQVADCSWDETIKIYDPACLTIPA

[2] = target: T1, radiolabeled H6PEX7 (human); assay: native gel or EMSA; remark: listed apart in the source
[3] = target: T1, radiolabeled H6PEX7 (human); assay: native gel or EMSA; remark: listed apart in the source
[4] = target: T2, PEX7-FLAG-HA (human) (UniProt O00628); assay: co-IP
T2 sequence: T1 sequence (chain, [^35S]methionine label)

[5] = target: HsPEX39-FLAG-HA (human) (UniProt Q5I0X4); assay: co-IP
[6] = target: HsPEX39-FLAG-HA (human) (UniProt Q5I0X4); assay: co-IP; remark: listed apart in the source

- binding [1]: binds
- binding [2]: binds
- binding [3]: binds
B1: HsPEX39(ΔC) (domain or fragment, UniProt Q5I0X4 1-70)
chain: MERPRSPQCSAPASASASVTLAQLLQLVQQGQELPGLEKRHIAAIHGEPTASRLPRRPKPWEAAALAESL

- binding [4]: no binding
- binding [5]: no binding
B2: calnexin (CANX) (protein, UniProt P27824 21-592)
chain: HDGHDDDVIDIEDDLDDVIEEVEDSKPDTTAPPSSPKVTYKAPVPTGEVYFADSFDRGTLSGWILSKAKKDDTDDEIAKYDGKWEVEEMKESKLPGDKGLVLMSRAKHHAISAKLNKPFLFDTKPLIVQYEVNFQNGIECGGAYVKLLSKTPELNLDQFHDKTPYTIMFGPDKCGEDYKLHFIFRHKNPKTGIYEEKHAKRPDADLKTYFTDKKTHLYTLILNPDNSFEILVDQSVVNSGNLLNDMTPPVNPSREIEDPEDRKPEDWDERPKIPDPEAVKPDDWDEDAPAKIPDEEATKPEGWLDDEPEYVPDPDAEKPEDWDEDMDGEWEAPQIANPRCESAPGCGVWQRPVIDNPNYKGKWKPPMIDNPSYQGIWKPRKIPNPDFFEDLEPFRMTPFSAIGLELWSMTSDIFFDNFIICADRRIVDDWANDGWGLKKAADGAAEPGVVGQMIEAAEERPWLWVVYILTVALPVFLVILFCCSGKKQTSGMEYKKTDAPQPDVKEEEEEKEEEKDKGDEEEEGEEKLEEKQKSDAEEDGGTVSQEEEDRKPKAEEDEILNRSPRNRKPRRE

- binding [6]: binds
- binding [5]: binds
B3: endogenous PEX7 (receptor, UniProt O00628 1-323)
chain: T1 sequence (chain, [^35S]methionine label)

Source: doi:10.1101/2024.04.30.591961
